Only a part is listed here, and it is no random draw. At the low end of the ranking the order means little.
Tests used:
Test in all cases: DAPPL (digital affinity profiling via proximity ligation, sequencing)
Conditions in all cases: 10 mM Tris-HCl pH 7.5, 50 mM NaCl, 1 mM DTT, 4% glycerol, room temperature, 30 min; GST-TFs on glutathione beads, 16-mer random dsDNA library, 0.1% …; high values mean tight binding; double strand, one strand shown; scale: fold enrichment (6-mer frequency, TF over GST control)
FLI1 = target: T1, FLI1 (UniProt Q01543)
T1 sequence: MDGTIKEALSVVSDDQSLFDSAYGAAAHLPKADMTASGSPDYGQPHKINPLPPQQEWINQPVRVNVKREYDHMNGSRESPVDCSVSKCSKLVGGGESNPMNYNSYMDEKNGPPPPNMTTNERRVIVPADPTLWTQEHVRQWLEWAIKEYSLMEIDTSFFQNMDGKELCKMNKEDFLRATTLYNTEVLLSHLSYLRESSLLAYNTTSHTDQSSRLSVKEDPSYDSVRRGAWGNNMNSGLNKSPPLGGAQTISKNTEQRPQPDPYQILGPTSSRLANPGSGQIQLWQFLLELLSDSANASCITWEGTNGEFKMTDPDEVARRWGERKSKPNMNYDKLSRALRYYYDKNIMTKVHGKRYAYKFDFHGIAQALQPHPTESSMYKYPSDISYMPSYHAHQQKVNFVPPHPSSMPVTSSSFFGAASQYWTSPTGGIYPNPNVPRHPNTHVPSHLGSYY

Sequences of proteins named here, by UniProt entry; tags and fusion partners are left off. A change or cut given only in a name is not applied to a line headed by its entry.
UniProt Q01892: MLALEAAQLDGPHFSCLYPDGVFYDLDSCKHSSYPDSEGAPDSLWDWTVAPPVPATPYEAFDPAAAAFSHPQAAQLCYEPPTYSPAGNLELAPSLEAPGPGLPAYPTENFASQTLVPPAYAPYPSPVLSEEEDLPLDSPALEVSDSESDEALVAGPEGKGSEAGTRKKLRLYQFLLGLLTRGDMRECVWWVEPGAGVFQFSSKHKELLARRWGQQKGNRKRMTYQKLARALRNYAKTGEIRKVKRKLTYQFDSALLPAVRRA
UniProt P41161: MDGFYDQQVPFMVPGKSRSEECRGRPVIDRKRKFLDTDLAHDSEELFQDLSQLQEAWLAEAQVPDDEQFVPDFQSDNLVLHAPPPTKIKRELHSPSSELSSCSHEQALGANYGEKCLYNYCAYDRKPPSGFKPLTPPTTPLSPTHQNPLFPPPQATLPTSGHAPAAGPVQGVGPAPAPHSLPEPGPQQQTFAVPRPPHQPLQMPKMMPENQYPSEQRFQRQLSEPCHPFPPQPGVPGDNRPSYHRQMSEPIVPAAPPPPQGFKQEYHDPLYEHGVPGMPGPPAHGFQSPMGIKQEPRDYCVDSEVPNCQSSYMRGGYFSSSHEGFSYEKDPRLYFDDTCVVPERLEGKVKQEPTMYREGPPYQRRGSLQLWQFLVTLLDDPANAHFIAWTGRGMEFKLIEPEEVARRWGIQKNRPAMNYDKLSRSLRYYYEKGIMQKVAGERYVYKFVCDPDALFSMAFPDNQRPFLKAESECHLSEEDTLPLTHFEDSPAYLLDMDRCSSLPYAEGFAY
UniProt Q99607: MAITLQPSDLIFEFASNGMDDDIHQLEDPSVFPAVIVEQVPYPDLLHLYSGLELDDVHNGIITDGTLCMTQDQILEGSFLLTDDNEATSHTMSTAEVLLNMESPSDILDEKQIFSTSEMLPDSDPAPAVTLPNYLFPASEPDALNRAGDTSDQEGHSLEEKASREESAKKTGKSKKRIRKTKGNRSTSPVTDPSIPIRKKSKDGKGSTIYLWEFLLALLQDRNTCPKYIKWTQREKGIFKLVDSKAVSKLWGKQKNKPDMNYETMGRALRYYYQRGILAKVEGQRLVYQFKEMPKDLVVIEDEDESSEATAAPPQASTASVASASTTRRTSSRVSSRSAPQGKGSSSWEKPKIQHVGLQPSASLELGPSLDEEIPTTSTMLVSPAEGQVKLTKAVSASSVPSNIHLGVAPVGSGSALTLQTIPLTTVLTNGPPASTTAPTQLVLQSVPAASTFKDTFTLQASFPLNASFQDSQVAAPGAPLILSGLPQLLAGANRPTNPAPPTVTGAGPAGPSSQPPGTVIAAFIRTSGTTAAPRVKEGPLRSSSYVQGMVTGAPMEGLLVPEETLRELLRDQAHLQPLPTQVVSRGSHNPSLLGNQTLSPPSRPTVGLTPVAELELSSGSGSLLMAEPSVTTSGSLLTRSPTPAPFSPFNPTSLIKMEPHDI

EHF = target: T2, EHF (UniProt Q9NZC4)
T2 sequence: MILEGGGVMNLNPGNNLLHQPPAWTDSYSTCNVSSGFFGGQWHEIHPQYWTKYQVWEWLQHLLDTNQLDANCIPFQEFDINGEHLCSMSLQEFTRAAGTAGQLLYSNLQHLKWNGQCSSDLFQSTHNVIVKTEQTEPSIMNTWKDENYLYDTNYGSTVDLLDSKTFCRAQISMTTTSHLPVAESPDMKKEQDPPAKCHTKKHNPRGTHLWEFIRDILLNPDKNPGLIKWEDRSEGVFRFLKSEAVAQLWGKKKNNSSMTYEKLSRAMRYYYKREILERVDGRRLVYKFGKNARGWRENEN

SPIB = SPIB (UniProt Q01892)
ETV5 = ETV5 (UniProt P41161)
ELF4 = ELF4 (UniProt Q99607)
ETV2 = target: T3, ETV2 (UniProt O00321)
T3 sequence: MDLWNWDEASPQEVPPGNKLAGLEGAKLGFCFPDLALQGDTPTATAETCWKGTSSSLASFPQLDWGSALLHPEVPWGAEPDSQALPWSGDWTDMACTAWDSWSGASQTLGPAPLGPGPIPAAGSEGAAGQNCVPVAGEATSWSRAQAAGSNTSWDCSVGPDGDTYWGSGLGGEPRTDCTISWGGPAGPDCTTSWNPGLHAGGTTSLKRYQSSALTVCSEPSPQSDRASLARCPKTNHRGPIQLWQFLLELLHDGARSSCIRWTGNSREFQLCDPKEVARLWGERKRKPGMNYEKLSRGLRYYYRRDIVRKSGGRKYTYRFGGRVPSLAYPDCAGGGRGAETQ

ETV3L = target: T4, ETV3L (UniProt Q6ZN32)
T4 sequence: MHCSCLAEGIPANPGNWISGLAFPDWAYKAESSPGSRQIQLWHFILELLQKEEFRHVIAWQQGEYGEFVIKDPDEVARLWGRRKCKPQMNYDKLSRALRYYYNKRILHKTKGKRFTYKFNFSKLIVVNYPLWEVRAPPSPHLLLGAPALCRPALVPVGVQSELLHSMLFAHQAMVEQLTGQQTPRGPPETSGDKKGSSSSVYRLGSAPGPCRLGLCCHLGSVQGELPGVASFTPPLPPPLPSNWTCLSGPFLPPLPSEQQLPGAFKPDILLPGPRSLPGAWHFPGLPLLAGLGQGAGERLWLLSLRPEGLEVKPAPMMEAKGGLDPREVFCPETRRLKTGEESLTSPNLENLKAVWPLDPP

Row | Sequence | binding signal (FLI1) | binding signal (EHF) | binding signal (SPIB) | binding signal (ETV5) | binding signal (ELF4) | binding signal (ETV2) | binding signal (ETV3L)
1 | CCAGCA | 0.939 | 0.943 | 0.927 | 0.893 | 0.922 | 0.931 | 0.896
2 | CGACTG | 0.999 | – | – | 1.06 | 0.998 | 1.19 | –
3 | CTAGGG | 0.867 | 0.933 | 0.809 | 0.82 | 0.929 | 0.942 | 0.961
4 | TCAAGA | 0.878 | 0.885 | 0.884 | 0.841 | 0.895 | 0.81 | 0.902
5 | CGGCAC | 0.965 | 0.997 | – | 0.977 | 0.94 | 0.875 | 0.985
6 | ACAGAA | 0.892 | 0.994 | 0.954 | 0.935 | 0.925 | 0.996 | 0.911
7 | GGATCA | 0.772 | 0.807 | 0.768 | 0.792 | 0.813 | 0.841 | 0.879
8 | GCAAGC | 0.967 | 0.862 | 0.94 | 0.88 | 0.938 | 0.889 | 0.905
9 | CCGTTA | 0.932 | 0.897 | 0.986 | 0.924 | 0.894 | 1.05 | 0.865
10 | CATCAG | 1 | 1.03 | 0.901 | 0.927 | 0.951 | 0.93 | 0.901
11 | TTGAAG | 0.93 | 0.987 | 0.985 | 0.959 | 0.99 | 0.981 | 0.972
12 | GCGATT | 0.9 | 0.889 | 0.863 | 0.89 | 0.945 | 0.852 | 0.959
13 | TACGAG | 0.9 | 0.896 | 0.891 | 0.917 | 0.958 | 0.854 | 0.909
14 | AGTACG | 0.891 | 0.947 | 0.899 | 0.962 | 0.856 | 0.888 | 0.887
15 | GTGCAC | 0.912 | 0.972 | 0.93 | 0.965 | 0.931 | 0.974 | 0.868
16 | GTTTAG | 0.79 | 0.843 | 0.896 | 0.838 | 0.815 | 0.881 | 0.804
17 | ATAGTC | 0.952 | 0.853 | 0.755 | 0.938 | 0.865 | 0.901 | 0.883
18 | CAAAGA | 0.875 | 0.98 | 0.951 | 0.938 | 0.934 | 0.956 | 0.902
19 | GGATTA | 0.896 | 0.822 | 0.852 | 0.861 | 0.81 | 0.896 | 0.921
20 | ATGAGG | 0.849 | 0.979 | 0.996 | 0.979 | 0.937 | 0.8 | 0.972
21 | TAGTCA | 0.867 | 0.875 | 0.815 | 0.868 | 0.904 | 0.84 | 0.906
22 | GGGCAT | 0.875 | 0.855 | 0.86 | 0.89 | 0.91 | 0.904 | 0.856

Row | Sequence | binding signal (FLI1) | binding signal (EHF) | binding signal (SPIB) | binding signal (ETV5) | binding signal (ELF4) | binding signal (ETV2) | binding signal (ETV3L)
23 | GTGTAA | 0.848 | 0.908 | 0.933 | 0.93 | 0.905 | 0.836 | 0.974
24 | TTCGGG | 0.953 | 0.875 | 0.892 | 0.859 | 0.929 | 0.706 | 0.982
25 | GGATAA | 0.782 | 0.788 | 0.78 | 0.792 | 0.775 | 0.808 | 0.763
26 | GCGTCA | 0.927 | 0.893 | 0.888 | 0.902 | 0.952 | 1.06 | 0.929
27 | GCCAGA | 0.684 | 0.717 | 0.663 | 0.693 | 0.682 | 0.743 | 0.614
28 | AGAGAA | 0.81 | 0.833 | 0.738 | 0.839 | 0.846 | 0.853 | 0.827
29 | CATAGA | 0.97 | 0.896 | 0.916 | 0.871 | 0.918 | 0.928 | 0.915
30 | AAAGTC | 0.977 | 0.931 | 0.936 | 0.954 | 0.893 | 0.873 | 0.928
31 | GCAGGT | 0.897 | 0.819 | 0.821 | 0.842 | 0.871 | 0.855 | 0.804
32 | GACCCC | 0.955 | 0.861 | 0.941 | 0.92 | 0.953 | 0.888 | 0.893
33 | TCCAGA | 0.855 | 0.881 | 0.844 | 0.872 | 0.958 | 0.865 | 0.913
34 | GCGGCA | 0.885 | 0.809 | 0.861 | 0.847 | 0.951 | 0.961 | 0.866
35 | GCGAAC | 0.888 | 0.873 | 0.935 | 0.961 | 0.943 | 0.947 | 0.897
36 | TAGAGA | 0.813 | 0.838 | 0.766 | 0.858 | 0.845 | 0.917 | 0.804
37 | ACGAGC | 0.995 | 1.02 | 0.998 | 0.926 | 0.958 | 1.04 | 0.916
38 | GATAAG | 0.93 | 0.904 | 0.883 | 0.819 | 0.989 | 0.958 | 0.932
39 | AGGGAT | 0.806 | 0.837 | 0.763 | 0.757 | 0.873 | 0.715 | 0.816
40 | CGTCGA | 0.925 | 0.912 | 0.909 | 0.872 | 0.939 | 1.01 | 0.857
41 | AGGTAA | 0.942 | 0.876 | 0.961 | 0.965 | 0.916 | 0.918 | 0.903
42 | CAGAAG | 0.688 | 0.843 | 0.709 | 0.737 | 0.757 | 0.763 | 0.719
43 | AACGCG | 0.988 | 0.943 | 1 | 0.956 | 1.01 | 0.901 | 0.966
44 | GTTGTC | 0.883 | 0.985 | 0.918 | 0.91 | 0.838 | 0.892 | 0.85

Reformatted in markdown: entries from further up.

| Row | Sequence | binding signal (FLI1) | binding signal (EHF) | binding signal (SPIB) | binding signal (ETV5) | binding signal (ELF4) | binding signal (ETV2) | binding signal (ETV3L) |
| --- | --- | --- | --- | --- | --- | --- | --- | --- |
| 24 | TTCGGG | 0.953 | 0.875 | 0.892 | 0.859 | 0.929 | 0.706 | 0.982 |
| 27 | GCCAGA | 0.684 | 0.717 | 0.663 | 0.693 | 0.682 | 0.743 | 0.614 |
| 28 | AGAGAA | 0.81 | 0.833 | 0.738 | 0.839 | 0.846 | 0.853 | 0.827 |
| 32 | GACCCC | 0.955 | 0.861 | 0.941 | 0.92 | 0.953 | 0.888 | 0.893 |
| 34 | GCGGCA | 0.885 | 0.809 | 0.861 | 0.847 | 0.951 | 0.961 | 0.866 |
| 35 | GCGAAC | 0.888 | 0.873 | 0.935 | 0.961 | 0.943 | 0.947 | 0.897 |
| 36 | TAGAGA | 0.813 | 0.838 | 0.766 | 0.858 | 0.845 | 0.917 | 0.804 |
| 38 | GATAAG | 0.93 | 0.904 | 0.883 | 0.819 | 0.989 | 0.958 | 0.932 |
| 39 | AGGGAT | 0.806 | 0.837 | 0.763 | 0.757 | 0.873 | 0.715 | 0.816 |
| 44 | GTTGTC | 0.883 | 0.985 | 0.918 | 0.91 | 0.838 | 0.892 | 0.85 |

— PMC7862700
